Reference: doi:10.1101/2025.03.15.643466
No constants are given. Whether binding was seen depends on the method and setting. In cells and extracts the contact can be indirect. Some results given as binding are weak or reduced against the parent protein; the word gives no strength.

Sequences of proteins named here, by UniProt entry; tags and fusion partners are left off.
UniProt P49841: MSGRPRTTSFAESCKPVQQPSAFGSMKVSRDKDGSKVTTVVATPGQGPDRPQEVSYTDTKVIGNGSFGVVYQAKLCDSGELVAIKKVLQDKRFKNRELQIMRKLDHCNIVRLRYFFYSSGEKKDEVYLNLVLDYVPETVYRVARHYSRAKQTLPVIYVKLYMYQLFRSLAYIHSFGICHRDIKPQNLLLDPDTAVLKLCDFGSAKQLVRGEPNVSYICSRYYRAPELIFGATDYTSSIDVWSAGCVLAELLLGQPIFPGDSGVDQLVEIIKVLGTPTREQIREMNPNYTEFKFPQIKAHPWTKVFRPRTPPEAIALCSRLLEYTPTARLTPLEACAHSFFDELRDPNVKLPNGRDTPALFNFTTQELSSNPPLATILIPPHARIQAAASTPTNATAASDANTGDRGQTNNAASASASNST

Target: FLAG-tagged FTO (UniProt Q9C0B1)
Experiment: co-IP

binding: binds
Substance: GSK3β (from UniProt P49841 1-420) (enzyme)
